Some of the results follow. Shown are side measurements of this screen, not its main read-out; they come without a call. Compounds called inactive in the main read-out are mostly missing here. Potencies come from curve fits of mixed quality, noted in brackets.

A short description of the assay: qHTS Assay for Lipid Storage Modulators in Drosophila S3 Cells.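 As to cell number change: cells counted by Cell Tracker Red CMTPX staining in the red channel.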 The conditions noted are these: BODIPY lipid droplet fluorescence, 18-24 h; for cell number change: measured here: cell count max response, cells fed with added oleic acid. The method in brief: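 Laser-scanning cytometry quantifies lipid droplet accumulation (500–530 nm total intensity; droplet/cell object ratio) in oleic acid-fed (400 uM added) Drosophila S3 cells treated with a concentration series. 20 uM Triacsin C defined 100% inhibition.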
Background: In qHTS, concentration-response curves come from the screen itself.

The mark [1] stands for this setting: measured here: lipid fluorescence (Fed channel) AC50, cells fed with added oleic acid.
Where [2] appears, read: measured here: cell number channel AC50, cells fed with added oleic acid.

A word on the AC50: it is the midpoint of the concentration-response curve, whichever way the signal moves. Low readings indicate greater potency, high ones weaker potency. As to `CCN(CC)CCCNC1=C(Cl)C(=O)c2ccccc2C1=O`, the cell number change is -2.59%. Also, the AC50 under setting [1] was 29.1 µM [falling, single point]. With `COC(=O)c1c(C)n(-c2ccc(OC)cc2)c2ccc(O)cc12`, the cell number change is 128%. The AC50 under setting [2] was 29.1 µM [rising, single point]. The AC50 under setting [1] is 20.6 µM [rising, partial curve]. As to `COC(=O)c1ccc2[nH]c(C)cc(=O)c2c1`, the cell number change turned out to be 89.8%. Under setting [2], the AC50 is 29.1 µM [rising, single point]. Further, under setting [1], the AC50 was 0.0517 µM [rising, full curve, poor fit]. As for `COc1ccc(NC(=O)Cn2ncn3c(cc4ccccc43)c2=O)c(OC)c1OC`, the cell number change is -9.43%. Regarding `CN1CCN(CCCC(=O)c2ccc(C3CCCC3)cc2)CC1`, the cell number change was found to be 0.465%. Moreover, the AC50 under setting [1] is 0.00461 µM [falling, full curve, poor fit]. `Cc1ccc2nc(SCc3nc4cc(Cl)ccc4c(=O)[nH]3)[nH]c2c1`: the cell number change amounted to 41.1%. In the case of `COc1ccc(OC)c(NC(=O)CSc2nnc(Cc3cccn3C)n2CCc2ccccc2)c1`, the cell number change was -20.2%. Also, the concentration at half-maximal activity (AC50) under setting [1] was 14.6 µM [falling, partial curve, poor fit]. With `CCOc1ccc(-c2nnc(SCC(=O)Nc3ccc4c(c3)c3ccccc3n4CC)n2N)cc1`, the cell number change was -31.4%. Besides, the AC50 under setting [2] is 32.6 µM [falling, single point]. Also, the concentration at half-maximal activity (AC50) under setting [1] was 29.1 µM [falling, single point]. As for `NC(=O)c1cc(N)ccc1N1CCCC1`, the cell number change is -36%. Under setting [2], the AC50 was 3.66 µM [falling, full curve, poor fit]. In addition, the AC50 under setting [1] was 3.66 µM [falling, full curve, poor fit]. For `Cc1cccc2cc(CN(CCCO)C(=O)Nc3ccccc3Cl)c(=O)[nH]c12`, the cell number change amounted to 0.992%. The AC50 under setting [1] was 1.3 µM [rising, full curve]. Consider `CCOc1ccc(NC(=O)N[C@@H](CCSC)C(=O)OC)cc1`, for which the cell number change was -36.8%. The AC50 under setting [2] is 32.6 µM [falling, single point]. Under setting [1], the AC50 is 20.6 µM [falling, partial curve]. In the case of `CCOC(=O)C1CCN(c2cc3c(cc2NC(=O)c2ccccc2Cl)n(C)c(=O)n3C)CC1`, the cell number change is -24.1%. `O=C(CCCCCN1C(=O)c2cccc3cccc(c23)C1=O)NC1CCS(=O)(=O)C1` (stereo not drawn): the cell number change worked out at 12.2%. Moreover, the AC50 under setting [1] was 2.06 µM [rising, full curve]. Consider `CCN(CC)S(=O)(=O)c1cccc(NC(=O)Nc2cccc(C(F)(F)F)c2)c1`, for which the cell number change is -86.9%. In addition, under setting [2], the concentration at half-maximal activity (AC50) is 3.26 µM [falling, full curve]. Under setting [1], the AC50 is 4.11 µM [falling, full curve]. Turning to `Cc1ccc(CNC(=O)C2CCC(=O)N(CCCN3CCOCC3)C2)cc1` (stereo not drawn), the cell number change is -33.8%. In addition, under setting [2], the AC50 is 0.00517 µM [falling, full curve]. As for `CN1CCN(Cc2c(C(=O)N3CCc4ccccc4C3)nc3ccc(Cl)cn23)CC1`, the AC50 under setting [2] was 6.51 µM [rising, single point]. `COc1ccc(S(=O)(=O)Cc2ccc(C(=O)NC3CCCC3)o2)cc1`: the cell number change stood at 8.94%. Same read-out and setting: the figure for `Nc1cc(N)cc(C(=O)OCC(=O)Nc2cc(S(=O)(=O)N3CCCCC3)ccc2Cl)c1` is 18.6%. With `O=C(NCCc1c[nH]c2ccccc12)C(=O)NCC1OCCCN1S(=O)(=O)c1ccccc1` (stereo not drawn), under setting [1], the AC50 was 1.64 µM [rising, partial curve, poor fit]. In the case of `COc1ccccc1N(CC(=O)Nc1ccc2c(c1)OCCO2)S(=O)(=O)c1ccc(C)cc1`, the cell number change came out at 17.5%. Further, the AC50 under setting [1] is 0.116 µM [rising, single point]. Turning to `CC(=O)N1CCc2cc(S(=O)(=O)NC(Cc3ccccc3)C(=O)NC3CCCCCC3)ccc21` (stereo not drawn), the cell number change is -65%. Further, under setting [2], the AC50 is 29.1 µM [falling, single point]. On to `CC(=O)c1ccccc1NC(=O)COC(=O)C1CCCN1S(=O)(=O)c1ccccc1F` (stereo not drawn), for which the cell number change is -6.36%. Moreover, the AC50 under setting [1] is 29.1 µM [rising, single point]. For `COc1ccccc1C(C)NCC(=O)Nc1ccccc1C(F)(F)F` (stereo not drawn), the cell number change turned out to be 1.42%. For the same molecule, the AC50 under setting [1] is 29.1 µM [rising, single point]. Consider `CC(C)c1ccc(-c2nn(-c3ccccc3)cc2C(=O)NCC2CCCO2)cc1` (stereo not drawn), for which the cell number change was -2.81%. `Cc1ccc(Cn2cc(-c3ccccc3)nn2)cc1`: the cell number change came out at 13.2%. Also, under setting [1], the AC50 was 0.00461 µM [rising, full curve, poor fit]. With `O=C(NCC1CCCO1)c1cc(-c2ccccc2)nc2ccc(Br)cc12` (stereo not drawn), the cell number change was found to be 4.69%. For the same molecule, the AC50 under setting [1] is 1.64 µM [falling, partial curve]. Consider `COC(=O)c1cc2c(=O)c3ccccc3oc2nc1/C=C/N(C)C`, for which the cell number change is -95.2%. Moreover, the AC50 under setting [1] was 13 µM [falling, partial curve]. Regarding `COc1ccc(C(=O)CSc2nnc(CN3CCCCC3)n2-c2ccc(Cl)cc2)cc1OC`, the cell number change was found to be 46.1%. Besides, the AC50 under setting [2] is 1.64 µM [rising, partial curve].

`COc1ccc(N(CC(=O)N2CCC(C)CC2)S(=O)(=O)c2c(C)nn(C)c2C)cc1`: the cell number change came to 6.43%. For the same molecule, the AC50 under setting [1] is 0.366 µM [falling, partial curve]. With `CCOC(=O)N1CCc2c(sc3nc4n(c(=O)c23)N=C(c2ccc(OC)cc2)CS4)C1`, the cell number change is 14.9%. Besides, the AC50 under setting [1] is 0.58 µM [rising, full curve, poor fit].

Consider `CCOC(=O)c1ccc(NC(=O)c2nc[nH]c2C(=O)NCc2ccccc2)cc1`, for which the cell number change was -26%. For the same molecule, the AC50 under setting [1] is 0.58 µM [falling, partial curve].

In the case of `CC(=O)c1cccc(NC(=O)C2CCCN(S(=O)(=O)c3ccccc3)C2)c1` (stereo not drawn), the cell number change is 20.5%. Further, the AC50 under setting [1] is 29.1 µM [rising, single point]. Regarding `CCOC(=O)C1CCCN(CC(=O)Nc2c(C(=O)OC)[nH]c3ccccc23)C1` (stereo not drawn), the cell number change is 34%. In addition, the AC50 under setting [2] is 0.13 µM [rising, full curve, poor fit]. Besides, the AC50 under setting [1] was 7.31 µM [rising, partial curve]. As for `Cc1cc(C(=O)COC(=O)c2ccc(NC(=O)CC#N)cc2)c(C)n1C1CC1`, the cell number change was 79.5%. Besides, the AC50 under setting [2] was 5.8 µM [rising, full curve]. With `Cc1ccc(-n2c(-c3ccccc3)n[nH]c2=S)c(C)c1`, the cell number change came to 3.86%. In addition, under setting [1], the AC50 was 0.517 µM [rising, single point]. Take `Cc1cccc(NC(=S)NC(=O)Cc2ccccc2)c1C`: the cell number change was 13.7%. Under setting [1], the AC50 is 0.411 µM [rising, full curve, poor fit].

Take `N#CC(Nc1ccccc1)c1ccccc1OCc1ccccc1` (stereo not drawn): the cell number change was -36%. In addition, under setting [1], the AC50 was 25.9 µM [falling, partial curve].

Source of the values: PubChem BioAssay AID2685 (National Center for Advancing Translational Sciences (NCATS), 2010).
